Results on 42 sequences are retold here after paper PMC7819943, “Rice protein-binding microarrays: a tool to detect cis-acting elements near promoter regions in rice”.

Sequences of proteins named here, by UniProt entry; tags and fusion partners are left off.
UniProt Q0JBA9, entry or part of it: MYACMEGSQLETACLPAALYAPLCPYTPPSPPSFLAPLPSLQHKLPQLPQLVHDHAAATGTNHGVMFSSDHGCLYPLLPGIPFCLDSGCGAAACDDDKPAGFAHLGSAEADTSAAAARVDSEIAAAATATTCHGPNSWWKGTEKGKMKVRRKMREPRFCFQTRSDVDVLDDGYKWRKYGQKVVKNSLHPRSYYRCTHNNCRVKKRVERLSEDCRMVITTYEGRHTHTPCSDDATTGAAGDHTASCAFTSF

The other results are listed elsewhere or left out.

In this experiment the target is OsWRKY34 (Oryza sativa, UniProt Q0JBA9 1-250). Nature of the experiment: protein-binding microarray (RPBM); PBS, 2% BSA, 51.3 ng/ul salmon testes DNA, 50 uM zinc acetate, 200 nM TF, 25 C, 1 h; high values mean tight binding. The conditions noted are these: protein: recombinant; tags: N-terminal polyhistidine and DsRed monomer fusion (pET32a); label: CyDye5-dUTP incorporated in the synthesized complementary strand; 3' TTTTT single-stranded linker to array surface; dsDNA, one strand shown. Put shortly: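 Per-feature fluorescence intensity (arbitrary units), read on an Axon 4000B scanner, is the binding signal. Transcription factors carrying an N-terminal polyhistidine tag and DsRed fusion were expressed in E. coli BL21-CodonPlus and purified on Ni–NTA. A custom Agilent array, made double-stranded by primer extension with Cy5-dUTP and blocked with 2% BSA, was incubated with 200 nM protein in PBS, 2% BSA, salmon testes DNA and 50 µM zinc acetate at 25 °C for 1 h and then washed.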
On to “GCGTAACTTTCTCATACGGACTCGGAATCAGGCAAATAATCGGAGTCACCTAGTGCAG”, for which the binding signal is 8550 fluorescence intensity (a.u.).
Consider “CGCTGATTCGCTAAATGTGTTTCTTATACGGATATGTATTCGGAGTCACCTAGTGCAG”, for which the binding signal is 9520 fluorescence intensity (a.u.).
Consider “GAATTTATTTATTTTCAGCTGCTGTTTATTTATATTTATTCGGAGTCACCTAGTGCAG”, for which the binding signal is 8220 fluorescence intensity (a.u.).
In the case of “GAGCTATTATTGATTGTTTTTCGTGAACGTCATTGTATTACGGAGTCACCTAGTGCAG” it was 11000 fluorescence intensity (a.u.).
With “AGTCATTTTCCCTGTTTGCAATGTTTACAAGATTTAGATACGGAGTCACCTAGTGCAG”, the binding signal is 9870 fluorescence intensity (a.u.).
As for “TAATCCTCTGTTTTACACGTGTATTTCTATCACATTCCTACGGAGTCACCTAGTGCAG”, the figure is 8040 fluorescence intensity (a.u.); as for “TTATCAGTTTAAGTCTTTGAAGGTTATGGTATTTTGAACACGGAGTCACCTAGTGCAG”, 8480 fluorescence intensity (a.u.).
In the case of “ACCGCCTCTCCACTCTACCACACCGACACGCACACCCAGCCGGAGTCACCTAGTGCAG” it was 9720 fluorescence intensity (a.u.); in that of “CACGCGCGTGGTCGGTGAAAATGCTAGGCCTACTTACTGTCGGAGTCACCTAGTGCAG”, 8120 fluorescence intensity (a.u.); in that of “TGTTTCTTTCGGTTTCTTGGGCTTCTCTTGCGGCAACATGCGGAGTCACCTAGTGCAG”, 10500 fluorescence intensity (a.u.).
In the case of “CCCTTTGTTTGTGTGTTTGGCTTGTCCAATTCAAAGTTTCCGGAGTCACCTAGTGCAG” it was 10000 fluorescence intensity (a.u.); in that of “CGATGGCCTCCTCCTCCTCCGCGTAACCATCGTCACCACCCGGAGTCACCTAGTGCAG”, 8100 fluorescence intensity (a.u.).
Regarding “TTCGCGCCCACCGTAGCTGGACACCTCCCCGCGCCTTGCGCGGAGTCACCTAGTGCAG”, the binding signal is 8710 fluorescence intensity (a.u.).
Regarding “TACTGGTTGATTGTACACTTTGTCCTTGGATTTTACGGACCGGAGTCACCTAGTGCAG”, the binding signal was 9580 fluorescence intensity (a.u.).
“ACCACCATTCGTGCTGCCGCTTGCGTGTTGTTATTACTCCCGGAGTCACCTAGTGCAG”: the binding signal was 8480 fluorescence intensity (a.u.).
As for “CGTGGCCGTCGAGTTGCTGCCTCAGTTGGTTCAAGAACCGCGGAGTCACCTAGTGCAG”, the figure is 9240 fluorescence intensity (a.u.).
As to “GCAGTGTCATGTTTTTTCGGTGTCCTCTAACCAATTACACCGGAGTCACCTAGTGCAG”, the binding signal was 11500 fluorescence intensity (a.u.).
As to “GGTGTTCTGTGATGGTGAATATGCATTTCCTATCTGGATCCGGAGTCACCTAGTGCAG”, the binding signal was 9150 fluorescence intensity (a.u.).
On to “TGGTGGTGGTAGGAAGAAGAAGAAAGAGAGGGGAAAAAAACGGAGTCACCTAGTGCAG”, for which the binding signal is 8450 fluorescence intensity (a.u.).
“AGCGGGGCAAGGCGGAATAGGGCGGTTGCTGCGGTGGGGACGGAGTCACCTAGTGCAG”: the binding signal was 8510 fluorescence intensity (a.u.).
With “CCCGCCGCTGCCGCTCCGCTCGCTCGCCCGCCACTGCCGCCGGAGTCACCTAGTGCAG”, the binding signal was 11700 fluorescence intensity (a.u.).
As to “TGATGATGGGTGGGATTGCCTTTCTCGAATCCTGTTCCACCGGAGTCACCTAGTGCAG”, the binding signal was 8900 fluorescence intensity (a.u.).
As to “GGCTTATTTCTGCAATGCATTTTTTTTCTGGTTTGACTCTCGGAGTCACCTAGTGCAG”, the binding signal is 15800 fluorescence intensity (a.u.).
Consider “ACTTCCCATTGTTGTTGCCATCGCCGCCGCCGCCGCCGCCCGGAGTCACCTAGTGCAG”, for which the binding signal was 12200 fluorescence intensity (a.u.).
With “ACTGTTTCCTTTAATTTGACTCTGTCACAGTTGAGTTCTACGGAGTCACCTAGTGCAG”, the binding signal is 8060 fluorescence intensity (a.u.).
In the case of “CCGACTGCCGCCTTCCTCGCCGCCCTCAACTCCACCTTCGCGGAGTCACCTAGTGCAG”, the binding signal is 9640 fluorescence intensity (a.u.).
Consider “CCTACGAGTATCACGTTCTCCTGCTGCTCCACCAGCGTTACGGAGTCACCTAGTGCAG”, for which the binding signal is 11000 fluorescence intensity (a.u.).
Consider “TTATCCGTGTATGAGTATGTTTTTAAGTTCATTTGGTTTTCGGAGTCACCTAGTGCAG”, for which the binding signal was 11500 fluorescence intensity (a.u.).
In the case of “GTCGTTCGTATCCGATTCCTGTCACGCGCAACATTCATTGCGGAGTCACCTAGTGCAG” it was 9650 fluorescence intensity (a.u.).
Turning to “CCTGCACCGTCCTCCGCGCGTCCGCCCCTCACTCTCCCAGCGGAGTCACCTAGTGCAG”, the binding signal was 10600 fluorescence intensity (a.u.).
As for “AGACACAGACGCGCACATACCACTACACACACAACACCACCGGAGTCACCTAGTGCAG”, the binding signal was 9740 fluorescence intensity (a.u.).
On to “TGTTGGTTCAAAATGTACAGCTGTACTCTCTATCACATTTCGGAGTCACCTAGTGCAG”, for which the binding signal is 8110 fluorescence intensity (a.u.).
In the case of “AAGGGCCCATTTGCTACTCCACCCACGGTTTTCTCTCAAACGGAGTCACCTAGTGCAG” it was 10100 fluorescence intensity (a.u.); in that of “CCTTGGTTTCACCTTTGCTGTATTGGTGTTTGGTTGGTCTCGGAGTCACCTAGTGCAG”, 13100 fluorescence intensity (a.u.); in that of “AGGTGCCCTGTCAATCGTTTCCGTGATTCGTGCTTCTATACGGAGTCACCTAGTGCAG”, 10200 fluorescence intensity (a.u.).
In the case of “GGTATGTGGAGTTTATCATCCCTTAGTCCTAGCTGTCGCCCGGAGTCACCTAGTGCAG” it was 10900 fluorescence intensity (a.u.); in that of “ACTATTATACCTGCTCTTAATCGTCACACAAACCGCGGTTCGGAGTCACCTAGTGCAG”, 10300 fluorescence intensity (a.u.); in that of “TCCTTCTGTCACCATTCGATTCCCAAACTCTCGCCGCCGCCGGAGTCACCTAGTGCAG”, 9140 fluorescence intensity (a.u.).
In the case of “TGCCGTTGATTTTTTTTTAAACATGTTTGACCGTTCGTCTCGGAGTCACCTAGTGCAG”, the binding signal was 14900 fluorescence intensity (a.u.).
As for “GCCCGCCTTTTCTCATCAGCTTAAATTTTTGGGTTGAACTCGGAGTCACCTAGTGCAG”, the figure is 8220 fluorescence intensity (a.u.).
In the case of “TTGGCTGTTGCTGAGGGCTAGGGGCAGTTTTTGGATGGTTCGGAGTCACCTAGTGCAG” it was 9500 fluorescence intensity (a.u.).
As to “GGACACTGCACATTGCAATTTCTGGATCTGGACTGACTGACGGAGTCACCTAGTGCAG”, the binding signal is 8370 fluorescence intensity (a.u.).
